Measured values: patent US12180208B1, “Pyrazolo[1,5-c]pyrido[3,4-e]pyrimidines as CK2 inhibitors” (KING FAISAL UNIVERSITY, priority 2024, dated 2024)

Tests used:
Format in all cases: cell-based
MDA-MB-231 (breast) = assay: In vitro cytotoxic activity (MTT) assay, MDA-MB-231; conditions: Homo sapiens, 96 hours exposure, read-out: Cytotoxicity activity IC50 (50% inhibition of cell proliferation)
Experimental: (§1) Compounds 1-16 were screened for their in vitro cytotoxic activity utilizing a 3-(4,5-dimethyl-thiazol-2-yl)-2,5-diphenyltetrazolium bromide (MTT) assay against selected cancer human cell lines consisting of PC3 (prostate), HCT116 (colon), A375 (melanoma), H1299 (lung), MIAPaCa-2 (pancreas), HL60 (leukemia), MCF7 (breast), MDA-MB-231 (breast) (T. Mosmann, J. Immunol. Meth., 1983, 65, 55-63). The cells were cultured at 37° C. in RMPI1640 medium supplemented with 10% fetal bovine serum, 50 IU/mL penicillin, and 50 μg/mL streptomycin in a 5% CO2 incubator. All cells were sub-cultured 3 times/week by trypsinisation. Viable cells were seeded and allowed to adhere for 12 hours before a test drug was added in 96-well plates at an initial density of 1.0×10^5 cells/mL. Tumor cell lines were separately exposed to various concentrations of the tested compounds followed by incubation at a temperature of 37° C. during 96 hours inside a medium of fresh RMPI 1640. Cells were subsequently incubated at 37° C. using MTT at 0.5 mg/mL during 4 hours. After removal of supernatant, formazan crystals were dissolved in isopropanol and the optical density was measured at 570 nm. CX-4945 was used as a positive control.

H1299 (lung) = assay: In vitro cytotoxic activity (MTT) assay, H1299; conditions: Homo sapiens, NCI-H1299, 96 hours exposure, read-out: Cytotoxicity activity IC50 (50% inhibition of cell proliferation)
Experimental: as §1

PC3 (prostate) = assay: In vitro cytotoxic activity (MTT) assay, PC3; conditions: Homo sapiens, 96 hours exposure, read-out: Cytotoxicity activity IC50 (50% inhibition of cell proliferation)
Experimental: as §1

HCT116 (colon) = assay: In vitro cytotoxic activity (MTT) assay, HCT116; conditions: Homo sapiens, HCT-116, 96 hours exposure, read-out: Cytotoxicity activity IC50 (50% inhibition of cell proliferation)
Experimental: as §1

MIAPaCa-2 (pancreas) = assay: In vitro cytotoxic activity (MTT) assay, MIAPaCa-2; conditions: Homo sapiens, MIA PaCa-2, 96 hours exposure, read-out: Cytotoxicity activity IC50 (50% inhibition of cell proliferation)
Experimental: as §1

HL60 (leukemia) = assay: In vitro cytotoxic activity (MTT) assay, HL60; conditions: Homo sapiens, HL-60, 96 hours exposure, read-out: Cytotoxicity activity IC50 (50% inhibition of cell proliferation)
Experimental: as §1

MCF7 (breast) = assay: In vitro cytotoxic activity (MTT) assay, MCF7; conditions: Homo sapiens, 96 hours exposure, read-out: Cytotoxicity activity IC50 (50% inhibition of cell proliferation)
Experimental: as §1

A375 (melanoma) = assay: In vitro cytotoxic activity (MTT) assay, A375; conditions: Homo sapiens, A-375, 96 hours exposure, read-out: Cytotoxicity activity IC50 (50% inhibition of cell proliferation)
Experimental: as §1

For `O=C(O)c1ccc2c(c1)nc(Nc1cccc(Cl)c1)c1ccncc12` [CX-4945, reference compound], the IC50 (MDA-MB-231 (breast)) was 6200 nM, the IC50 (H1299 (lung)) was 2300 nM and the IC50 (PC3 (prostate)) was 2000 nM. It also gave an IC50 (HCT116 (colon)) of 2300 nM, an IC50 (MIAPaCa-2 (pancreas)) of 1000 nM and an IC50 (HL60 (leukemia)) of 3700 nM. The IC50 (MCF7 (breast)) was 9100 nM and the IC50 (A375 (melanoma)) was 4100 nM.
